Test results published in US20210275480A1, “COMPOSITIONS AND METHODS FOR THE REDUCTION OR TREATMENT OF FIBROSIS” (AXCELLA HEALTH INC., priority 2018, published 2021).
For at least one compound, name, drawing or mass did not settle the structure.

Tested on: FATZO mice (NASH)
Test: FATZO mouse western diet + fructose NASH model (Example 6): body and liver weight, liver histology, NAS, fibrosis, Sirius Red
Type: in vivo
Conditions: WDF-fed FATZO mice, LIVRQNAC+G, LRQNAC, OCA
Source text: In one example, the effects of […] and related amino acid compositions in the obesity, metabolism-driven non-alcoholic steatohepatitis (NASH) in FATZO mouse model was examined.
NASH was induced in 60 male FATZO mice by a western diet (Research Diet #D12079B; fat 40% kcal, protein 17% kcal, carbohydrate 43% kcal) supplemented with 5% fructose in the drinking water (WDF) during a 16 week induction phase. Diets and water were available ad libitum. Littermate control male FATZO mice fed with a control diet (n=6, Purina #5008; fat 17% kcal, protein 27% kcal, carbohydrate 56% kcal) and sterile water were set up for control purpose. Mice were housed in plastic cages with microisolator. Sterilized bedding was replaced once a week. Mice were housed three per cage and maintained on a twelve hour light cycle throughout study duration. Room temperature was monitored daily and maintained at 22-25° C. Body weight was recorded every week during the induction phase. […]
[…], […]+G, LRQNAC, OCA and Vehicle were administered by oral gavage at a volume of 10 mL/kg throughout the study. Dosages were calculated by daily body weight. […]
The viability, clinical signs and behavior were monitored daily. Body weight was recorded daily during the dosing period. […]
Animals were anesthetized with CO2 inhalation and exsanguinated via cardiac puncture for euthanasia. […] Organ weights (total liver, gonadal fat pads) were recorded. […]

## CC[C@H]1[C@@H](O)[C@@H]2[C@H](CC[C@]3(C)[C@@H]([C@H](C)CCC(=O)O)CC[C@@H]23)[C@@]2(C)CC[C@@H](O)C[C@@H]12 [OCA, 6α-ethyl-chenodeoxycholic acid]
LIVRQNAC 3000 mg/kg (high dose)
  liver fibrosis score: did not affect
LIVRQNAC 3000 mg/kg, compared to vehicle
  Sirius Red collagen staining (collagen deposition): did not affect
